Common to all, as to assay: co-IP
Test [1] has as its target His-tagged RUNX3 (C-terminal 6XHis) (human) (UniProt Q13761).
Test [2] has as its target GST-Runx3 (pGEX4T-1-RUNX3 aa 49-187) (UniProt Q13761).
Test [3] addresses SMARCA4/Brg1 (endogenous, HGC-27) (human (endogenous in HGC-27)) (UniProt P51532).

By UniProt entry, the sequences of proteins in these tests, tags left out. Where a name states a change or a piece, a line headed by the entry shows the natural chain unless it says otherwise.
UniProt Q13761: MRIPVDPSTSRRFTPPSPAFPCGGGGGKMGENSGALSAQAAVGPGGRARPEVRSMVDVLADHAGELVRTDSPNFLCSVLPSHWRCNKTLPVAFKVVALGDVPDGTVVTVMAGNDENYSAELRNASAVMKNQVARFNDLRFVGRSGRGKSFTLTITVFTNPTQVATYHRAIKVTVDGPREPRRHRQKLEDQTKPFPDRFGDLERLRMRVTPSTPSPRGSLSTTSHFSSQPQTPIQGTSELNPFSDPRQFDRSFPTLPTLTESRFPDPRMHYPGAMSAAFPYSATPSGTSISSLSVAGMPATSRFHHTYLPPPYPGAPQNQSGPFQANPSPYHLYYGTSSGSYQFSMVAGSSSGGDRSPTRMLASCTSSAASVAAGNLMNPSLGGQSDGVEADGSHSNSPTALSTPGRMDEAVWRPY
UniProt P51532: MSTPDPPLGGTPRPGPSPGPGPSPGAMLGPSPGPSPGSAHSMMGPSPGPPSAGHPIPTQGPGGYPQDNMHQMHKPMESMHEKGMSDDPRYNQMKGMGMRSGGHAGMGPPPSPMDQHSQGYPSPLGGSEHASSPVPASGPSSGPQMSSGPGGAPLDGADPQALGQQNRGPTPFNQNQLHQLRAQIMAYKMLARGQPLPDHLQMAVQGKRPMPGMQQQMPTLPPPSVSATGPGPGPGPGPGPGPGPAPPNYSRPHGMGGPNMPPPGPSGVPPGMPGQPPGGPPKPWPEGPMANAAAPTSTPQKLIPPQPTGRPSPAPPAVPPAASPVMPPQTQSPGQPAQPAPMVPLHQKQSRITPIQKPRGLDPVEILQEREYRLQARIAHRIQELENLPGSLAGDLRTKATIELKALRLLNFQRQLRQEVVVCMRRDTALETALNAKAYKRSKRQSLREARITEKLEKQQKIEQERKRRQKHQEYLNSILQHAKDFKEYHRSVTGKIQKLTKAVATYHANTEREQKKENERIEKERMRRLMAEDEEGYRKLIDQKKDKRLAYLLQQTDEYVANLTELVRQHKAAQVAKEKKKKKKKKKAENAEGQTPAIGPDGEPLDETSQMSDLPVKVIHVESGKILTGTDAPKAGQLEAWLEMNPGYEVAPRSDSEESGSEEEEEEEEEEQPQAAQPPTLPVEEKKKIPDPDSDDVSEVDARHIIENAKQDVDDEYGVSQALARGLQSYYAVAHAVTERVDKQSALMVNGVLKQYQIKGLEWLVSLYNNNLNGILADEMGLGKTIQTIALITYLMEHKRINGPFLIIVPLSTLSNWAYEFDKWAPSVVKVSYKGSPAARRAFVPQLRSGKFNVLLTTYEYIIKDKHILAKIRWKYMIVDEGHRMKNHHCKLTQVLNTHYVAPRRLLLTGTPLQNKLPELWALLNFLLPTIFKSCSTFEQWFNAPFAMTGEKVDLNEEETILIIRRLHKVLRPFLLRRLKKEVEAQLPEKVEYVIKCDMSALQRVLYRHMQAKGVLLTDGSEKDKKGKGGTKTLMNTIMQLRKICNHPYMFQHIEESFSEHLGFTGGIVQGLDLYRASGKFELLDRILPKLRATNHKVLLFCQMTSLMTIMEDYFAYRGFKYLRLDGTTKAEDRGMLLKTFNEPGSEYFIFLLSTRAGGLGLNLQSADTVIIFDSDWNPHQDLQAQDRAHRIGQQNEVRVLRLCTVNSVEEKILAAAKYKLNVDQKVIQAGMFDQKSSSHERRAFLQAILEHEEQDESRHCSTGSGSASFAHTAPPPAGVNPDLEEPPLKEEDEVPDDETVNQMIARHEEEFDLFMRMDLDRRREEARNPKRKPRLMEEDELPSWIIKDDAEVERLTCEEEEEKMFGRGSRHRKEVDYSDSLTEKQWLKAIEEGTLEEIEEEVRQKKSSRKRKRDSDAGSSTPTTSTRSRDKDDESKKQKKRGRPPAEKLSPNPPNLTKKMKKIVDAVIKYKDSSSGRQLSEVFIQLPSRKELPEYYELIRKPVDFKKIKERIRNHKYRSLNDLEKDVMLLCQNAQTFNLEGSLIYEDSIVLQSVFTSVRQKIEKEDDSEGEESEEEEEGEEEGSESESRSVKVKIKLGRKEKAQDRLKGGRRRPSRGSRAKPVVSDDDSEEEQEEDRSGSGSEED

Consider three substances from publication doi:10.1101/2024.08.16.608297.

Results are given in words; binding and its absence hold for the method and conditions named. Binding seen in cells or lysates may run through a third protein. Some results given as binding are weak or reduced against the parent protein; the word gives no strength.

“GST-Runx3 (pGEX4T-1-RUNX3 aa 49-187) (from UniProt Q13761 49-187) (domain or fragment)”: in test [1], the binding entry was “binds”.
For “His-tagged RUNX3 (C-terminal 6XHis) (from UniProt Q13761 1-415)”, the binding result in test [2] is listed as “binds”.
Take “Runx3 (endogenous, HGC-27) (from UniProt Q13761 1-415)”: the binding entry in test [3] is given as “binds”.
